Measured values as given in the supplement of paper PMC3334620.
The full ranking holds about 33,000 sequences; the median of “E-score (-0.5 to 0.5)” is about -0.016, and the highest 2% start at about 0.3. Some of the results follow.

The sequences below were run against T1, Yer184c (UniProt P39961) (assay: PBM E-score (8-mer binding enrichment) (E-score (-0.5 to 0.5)); higher = stronger / more preferred TF binding). Conditions: protein concentration: 100 nM; construct: GST-full length.
T1 sequence: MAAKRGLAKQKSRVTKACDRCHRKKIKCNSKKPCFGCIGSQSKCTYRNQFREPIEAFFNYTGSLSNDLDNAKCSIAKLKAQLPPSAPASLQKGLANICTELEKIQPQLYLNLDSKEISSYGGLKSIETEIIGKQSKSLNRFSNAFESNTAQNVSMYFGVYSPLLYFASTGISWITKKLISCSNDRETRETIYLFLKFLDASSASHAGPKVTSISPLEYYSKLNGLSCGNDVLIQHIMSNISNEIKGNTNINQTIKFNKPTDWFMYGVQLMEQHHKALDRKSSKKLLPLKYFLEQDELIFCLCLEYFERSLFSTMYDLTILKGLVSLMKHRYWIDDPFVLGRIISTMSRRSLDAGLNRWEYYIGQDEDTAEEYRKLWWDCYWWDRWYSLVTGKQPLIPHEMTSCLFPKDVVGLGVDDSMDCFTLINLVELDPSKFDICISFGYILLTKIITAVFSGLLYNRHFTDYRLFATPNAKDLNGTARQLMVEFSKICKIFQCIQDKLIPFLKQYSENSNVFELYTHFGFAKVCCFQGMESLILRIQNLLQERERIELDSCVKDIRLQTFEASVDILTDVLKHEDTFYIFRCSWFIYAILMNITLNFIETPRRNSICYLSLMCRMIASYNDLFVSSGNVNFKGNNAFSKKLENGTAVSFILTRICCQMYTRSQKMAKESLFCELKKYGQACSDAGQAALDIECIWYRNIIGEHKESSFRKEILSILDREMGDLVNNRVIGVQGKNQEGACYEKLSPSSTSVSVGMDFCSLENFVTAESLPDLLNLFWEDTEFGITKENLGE
Procedure, shortened: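 GST-tagged yeast TFs (full-length or DNA-binding domain) were made by PURExpress in vitro transcription/translation and applied at about 100-200 nM to universal all-10-mer Agilent arrays. The arrays were made double-stranded by primer extension, on fresh or once-stripped slides. Bound protein was detected with fluorescent anti-GST, and scans were normalised with masliner. Each ungapped eight-base word, pooled with its reverse complement, received an E-score (modified Wilcoxon-Mann-Whitney statistic) from the Universal PBM Analysis Suite.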

Sequence | PBM E-score
ATATTGCC | -0.0158
ACAAAGTA | 0.229
AGTACATC | -0.0579
CATTGCGC | -0.0922
GGCACCAC | -0.0332
AATTCCCT | -0.0636
TAAGTATA | 0.193
TCCCCAGA | -0.303
ATAGACCA | -0.0848
ATCACCGA | 0.21
GCGAGTAA | 0.216
GTGCACTA | 0.139
TCAGAACA | 0.106
GCTGTCAA | 0.0182
AAGGAAGG | -0.0761
CACTAGTC | -0.184
CCCACGGG | -0.0754
ACCAGTGC | -0.249
CGGTAAGA | 0.256
AAGTGAGT | -0.1
CAAGCTCC | -0.144
AACTGTGC | -0.148
CTTGGTCA | 0.053
GCACGCTA | -0.112
CGCTCATC | 0.0551

Sequence | PBM E-score
GCGGAAGA | 0.142
CAGATCGC | 0.0154
AGCGGGAG | -0.192
ATATCCCC | -0.196
GGGTCACC | -0.234
AGGGCTAC | -0.306
AGCAGCTC | -0.16
ATGGGTCC | -0.0706
CGCGTGTC | 0.202
TATGGGCA | -0.111
TGTTTAAA | 0.0737
GCGGCCCC | -0.281
AGGTCAGG | -0.256
ATCTGGAC | -0.0747
GGATTTCA | 0.201
ATTTTAGC | 0.0506
ATTAGGTG | 0.0154
ACAGCTAA | -0.0181
ATCATTAG | 0.037
GAACAAGC | -0.00628
GAAAAGCC | 0.0253
ATCATACA | 0.245
ACCTGGTA | -0.301
AGTTGATA | 0.173
AGTCACTC | -0.0449

Sequence | PBM E-score
GACTCACA | -0.065
CTGAACAG | 0.108
ACGCGAAA | -0.006
CTCGATCA | 0.0427
ACAGGGCA | -0.147
GTCTTATA | 0.00725
GGTATTCA | 0.136
CACCTGTC | -0.121
AGCACTCC | 0.0622
CAGATAAG | 0.0249
CTGGAACA | 0.122
GCGCTGCA | -0.143
GTCCCGCA | -0.0234
CCCGCTGC | -0.167
CGCGCTGC | -0.177
AGCAAACC | 0.0871
ACGGTCCC | -0.205
CGGTCACG | -0.0759
GCCGGCTA | 0.266
ATCTAGTC | -0.0233
AAAACTGT | 0.0544
AAACTTAC | -0.0665
CGTCCTCC | -0.111
AGCTAAAC | -0.00263
CGTTATGA | -0.146

Rewritten with tabs: entries from further up.
Sequence	PBM E-score
GCGCTGCA	-0.143
GTCCCGCA	-0.0234
CCCGCTGC	-0.167

(continued)

Sequence | PBM E-score
AGAGTCGA | -0.191
CTGACGAA | 0.0607
ATGGGATC | -0.0683
CCCCACCA | -0.113
GACGCTAA | -0.153
GCACTGCA | -0.0785
GACAATTA | 0.135
ACGAGGCG | 0.0616
CCGAGGAG | 0.0862
CGGAGTAG | 0.252
AGATAGCT | -0.00764
AGTGTTTC | -0.0499
TGCTCACA | -0.216
AGTTGAAC | -0.0657
AAGAATAC | 0.128
ATACTCGG | 0.107
GCAGGCGC | 0.0213
ATTCGAAC | 0.144
GCGCACGC | -0.137
TGGATGAA | -0.0386
CGCCCCCG | -0.103
ACTTACGC | -0.0496
GTCGGGGA | -0.0792
GACTCTGA | -0.0728
AAGGCCCC | -0.155

A different layout for part of the listing above:
Sequence	PBM E-score
CGCCCCCG	-0.103
ACTTACGC	-0.0496

Further records follow.

Sequence | PBM E-score
ACTGTGTC | 0.0251
ACGAACAA | 0.275
AATTAGGG | -0.187
AGTGTAAC | -0.0111
GAAGAATA | -0.0112
GCCACACA | -0.00275
CACGCACA | -0.0326
CGGGGACG | -0.15
AGGGAGCC | -0.301
ACAATCAC | -0.0265
CTGGCTAA | -0.115
CAATGGTA | -0.0492
AGATATCC | 0.0863
AAATGATT | 0.316
ATGTCAGA | -0.0803
CTACTGGA | -0.271
TCCGTGAA | 0.283
ACGATCGC | 0.0633
AGCGAACA | 0.146
AGGGACAA | -0.105
CACTTGAG | -0.175
GTAAAGGA | 0.0974
ACCCCCTA | -0.41
GACCAGAA | -0.0843
ACCAACCG | 0.127

Sequence | PBM E-score
GCGAGGCC | -0.266
GCCGGGCC | 0.169
ACGAATAA | 0.0316
GGGCCTTA | -0.209
GTTTCGAA | -0.00445
AGGTCTCG | -0.144
TCCTTGCA | -0.182
AGCCCCCA | -0.36
GTACGAAC | 0.288
GCAGAACA | -0.0566
CACGAACA | 0.187
ATGTTTGA | 0.0399
TCCTGGCA | -0.0813
CGCCGGGA | 0.312
GCGCTCCC | -0.143
CATGTATA | -0.00805
ATAACGTA | 0.128
ATGCTGTG | -0.0237
TAAGAGCA | -0.0223
GCGAATCA | -0.00378
GCTTAGAC | -0.317
ATGAGTGG | -0.229
CCAAGGCC | -0.136
CAATAAAG | 0.188
ACGCGCAT | -0.0398

Sequence | PBM E-score
CCCCTGGA | -0.237
CCCGACGA | 0.0666
CCTAGTAG | -0.103
ATTGATAA | 0.172
CCTGGTAA | -0.0866
ACCGAATA | 0.173
CAAGACGG | -0.158
GTCCCGGA | 0.318
CAGATGGG | -0.0954
ACCATCGT | -0.108
CACCATGC | -0.226
GAGTTTTA | 0.159
AGCACAAA | 0.194
GCGGAATA | 0.205
GCATGAAC | 0.037
CGGCGTTC | 0.208
CTTCCAAC | 0.0172
CGCAGTCC | -0.124
GAGGCTTA | -0.176
GTGGCTTA | -0.218
CGGTAGGC | -0.094
CGTAGCAA | -0.0635
AGGGGAGA | -0.224
AGTGTACA | -0.0626
TTTTAAAA | 0.247

Sequence | PBM E-score
ACACATAA | 0.188
TCTCGGCA | 0.35
CCCCTTAA | -0.227
AACGGGAG | 0.0873
TCACGCGA | 0.0977
GCACGCAC | -0.129
GAGCTTTA | -0.023
GCGGGACC | -0.0189
AAGCTGCT | -0.121
TAGACGGA | 0.176
ACACGTAG | -0.233
CCTCGAGA | -0.107
ACCTCACT | -0.0518
CGTGACGA | 0.0606
TCCCGCAA | 0.0329
ACACTACA | 0.206
GGAGTTGA | 0.0129
ACGGAGGC | -0.0351
GATCACGC | 0.124
TATTACCA | 0.139
ACGAATAG | -0.0621
CTCCTAGC | -0.186
CCAGTAGG | -0.188
ACTCTCCG | 0.154
CCCCCCTC | -0.412

An excerpt of these results, in markdown.

| Sequence | PBM E-score |
| --- | --- |
| CCAGTAGG | -0.188 |
| ACTCTCCG | 0.154 |
| CCCCCCTC | -0.412 |

The results go on:

Sequence | PBM E-score
TATAGTAA | 0.182
TAGTACGA | 0.0695
CGAGTCGC | -0.136
AAGCGCAT | -0.19
ACCAATTA | 0.131
GACAACAC | 0.16
GCGGTAGA | -0.141
TATACAGA | 0.204
CGCATACA | 0.0334
ACTCTTAT | 0.124
TCAGGACA | 0.157
CGCGTCTC | 0.0597
CATCGCAC | -0.0543
GACCGTTA | 0.0236
ACCCACTG | -0.131
CAGTACCC | -0.283
GGCGTTCA | 0.0444
ACCTAAAA | 0.0578
GTTTTTAA | 0.203
